Measurements as given in the supplement of paper PMC10849652.
Some of the results follow.

Chains of the proteins cited; added tags and fusions are not shown. Lines headed by an entry give the natural chain unless they say otherwise; changes in a name come on top.
UniProt O60216: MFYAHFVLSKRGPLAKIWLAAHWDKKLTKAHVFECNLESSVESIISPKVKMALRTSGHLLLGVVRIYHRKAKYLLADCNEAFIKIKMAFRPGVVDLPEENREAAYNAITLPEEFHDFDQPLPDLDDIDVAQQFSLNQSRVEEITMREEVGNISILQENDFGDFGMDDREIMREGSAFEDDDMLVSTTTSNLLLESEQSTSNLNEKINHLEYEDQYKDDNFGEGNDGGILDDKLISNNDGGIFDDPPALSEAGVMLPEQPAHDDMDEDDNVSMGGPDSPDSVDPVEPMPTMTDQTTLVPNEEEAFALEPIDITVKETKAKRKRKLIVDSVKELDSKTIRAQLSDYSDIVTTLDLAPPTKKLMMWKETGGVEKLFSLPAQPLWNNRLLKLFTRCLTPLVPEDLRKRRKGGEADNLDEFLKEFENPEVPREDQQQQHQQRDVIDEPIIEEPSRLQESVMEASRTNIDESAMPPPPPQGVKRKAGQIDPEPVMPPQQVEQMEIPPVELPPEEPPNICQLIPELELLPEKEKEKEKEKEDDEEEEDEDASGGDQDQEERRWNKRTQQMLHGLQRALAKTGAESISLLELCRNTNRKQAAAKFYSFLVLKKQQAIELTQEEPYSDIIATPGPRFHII
UniProt Q92878: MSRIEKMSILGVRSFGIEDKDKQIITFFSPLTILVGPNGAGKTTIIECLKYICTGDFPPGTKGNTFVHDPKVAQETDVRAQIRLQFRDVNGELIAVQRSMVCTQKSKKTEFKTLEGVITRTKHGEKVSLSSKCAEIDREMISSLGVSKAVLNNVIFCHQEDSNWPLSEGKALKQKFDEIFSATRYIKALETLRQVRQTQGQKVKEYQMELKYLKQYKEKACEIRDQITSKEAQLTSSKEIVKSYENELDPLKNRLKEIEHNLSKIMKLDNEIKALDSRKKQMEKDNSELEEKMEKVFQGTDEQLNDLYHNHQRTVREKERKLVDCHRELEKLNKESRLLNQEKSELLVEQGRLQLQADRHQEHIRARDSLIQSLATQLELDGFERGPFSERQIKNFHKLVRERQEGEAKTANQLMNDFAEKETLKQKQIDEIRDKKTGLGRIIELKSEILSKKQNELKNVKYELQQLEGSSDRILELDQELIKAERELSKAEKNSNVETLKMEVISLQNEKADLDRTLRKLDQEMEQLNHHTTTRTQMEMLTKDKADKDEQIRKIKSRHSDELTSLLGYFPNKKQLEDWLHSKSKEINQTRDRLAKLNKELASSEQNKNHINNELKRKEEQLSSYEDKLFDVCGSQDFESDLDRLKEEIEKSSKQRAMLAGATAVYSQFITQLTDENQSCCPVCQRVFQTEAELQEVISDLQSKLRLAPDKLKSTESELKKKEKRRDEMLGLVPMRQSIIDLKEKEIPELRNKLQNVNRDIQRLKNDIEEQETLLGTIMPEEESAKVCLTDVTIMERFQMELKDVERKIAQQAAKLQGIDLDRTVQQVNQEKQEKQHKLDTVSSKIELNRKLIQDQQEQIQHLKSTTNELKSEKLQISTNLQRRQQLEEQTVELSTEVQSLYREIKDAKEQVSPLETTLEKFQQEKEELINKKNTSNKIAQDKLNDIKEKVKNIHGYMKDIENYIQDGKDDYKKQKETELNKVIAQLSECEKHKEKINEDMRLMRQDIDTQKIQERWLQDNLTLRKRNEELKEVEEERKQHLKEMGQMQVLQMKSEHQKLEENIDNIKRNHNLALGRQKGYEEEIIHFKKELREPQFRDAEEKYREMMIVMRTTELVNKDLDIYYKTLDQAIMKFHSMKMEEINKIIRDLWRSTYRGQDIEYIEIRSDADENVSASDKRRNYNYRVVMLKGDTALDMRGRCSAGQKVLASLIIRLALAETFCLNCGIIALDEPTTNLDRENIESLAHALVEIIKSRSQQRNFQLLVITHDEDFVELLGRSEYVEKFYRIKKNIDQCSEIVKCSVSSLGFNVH
UniProt P61020: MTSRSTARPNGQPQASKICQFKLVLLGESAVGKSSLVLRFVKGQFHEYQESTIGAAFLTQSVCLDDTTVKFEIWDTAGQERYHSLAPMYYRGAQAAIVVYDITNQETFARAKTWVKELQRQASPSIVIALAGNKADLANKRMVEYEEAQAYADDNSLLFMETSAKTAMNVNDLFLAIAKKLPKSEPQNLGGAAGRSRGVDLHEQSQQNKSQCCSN
UniProt Q9H5N1: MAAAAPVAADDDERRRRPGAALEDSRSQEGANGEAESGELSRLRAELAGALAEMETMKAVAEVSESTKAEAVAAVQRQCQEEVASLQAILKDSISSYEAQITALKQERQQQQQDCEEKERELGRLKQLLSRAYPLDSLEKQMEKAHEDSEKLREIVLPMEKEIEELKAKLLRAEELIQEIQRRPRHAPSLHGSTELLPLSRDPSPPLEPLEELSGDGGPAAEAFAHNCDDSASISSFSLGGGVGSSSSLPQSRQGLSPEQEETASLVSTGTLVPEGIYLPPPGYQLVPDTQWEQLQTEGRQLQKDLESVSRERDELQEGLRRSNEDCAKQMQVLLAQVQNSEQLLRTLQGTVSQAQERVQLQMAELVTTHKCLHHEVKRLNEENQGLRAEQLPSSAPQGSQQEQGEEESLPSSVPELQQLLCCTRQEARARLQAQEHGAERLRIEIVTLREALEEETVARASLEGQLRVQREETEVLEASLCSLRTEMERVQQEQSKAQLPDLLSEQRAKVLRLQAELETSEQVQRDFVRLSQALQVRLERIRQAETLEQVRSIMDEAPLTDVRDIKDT
UniProt P62491: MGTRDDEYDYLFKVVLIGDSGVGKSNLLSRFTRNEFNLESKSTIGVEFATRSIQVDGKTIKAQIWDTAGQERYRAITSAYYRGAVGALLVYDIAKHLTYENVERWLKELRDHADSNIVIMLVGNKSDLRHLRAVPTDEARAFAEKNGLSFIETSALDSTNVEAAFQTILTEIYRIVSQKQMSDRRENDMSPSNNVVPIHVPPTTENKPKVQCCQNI
UniProt P62834: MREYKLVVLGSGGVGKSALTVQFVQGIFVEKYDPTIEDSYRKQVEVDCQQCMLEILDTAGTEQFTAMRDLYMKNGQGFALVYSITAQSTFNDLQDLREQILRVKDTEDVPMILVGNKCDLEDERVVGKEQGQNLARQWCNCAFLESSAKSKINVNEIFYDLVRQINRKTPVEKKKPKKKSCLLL
UniProt Q9P0K7: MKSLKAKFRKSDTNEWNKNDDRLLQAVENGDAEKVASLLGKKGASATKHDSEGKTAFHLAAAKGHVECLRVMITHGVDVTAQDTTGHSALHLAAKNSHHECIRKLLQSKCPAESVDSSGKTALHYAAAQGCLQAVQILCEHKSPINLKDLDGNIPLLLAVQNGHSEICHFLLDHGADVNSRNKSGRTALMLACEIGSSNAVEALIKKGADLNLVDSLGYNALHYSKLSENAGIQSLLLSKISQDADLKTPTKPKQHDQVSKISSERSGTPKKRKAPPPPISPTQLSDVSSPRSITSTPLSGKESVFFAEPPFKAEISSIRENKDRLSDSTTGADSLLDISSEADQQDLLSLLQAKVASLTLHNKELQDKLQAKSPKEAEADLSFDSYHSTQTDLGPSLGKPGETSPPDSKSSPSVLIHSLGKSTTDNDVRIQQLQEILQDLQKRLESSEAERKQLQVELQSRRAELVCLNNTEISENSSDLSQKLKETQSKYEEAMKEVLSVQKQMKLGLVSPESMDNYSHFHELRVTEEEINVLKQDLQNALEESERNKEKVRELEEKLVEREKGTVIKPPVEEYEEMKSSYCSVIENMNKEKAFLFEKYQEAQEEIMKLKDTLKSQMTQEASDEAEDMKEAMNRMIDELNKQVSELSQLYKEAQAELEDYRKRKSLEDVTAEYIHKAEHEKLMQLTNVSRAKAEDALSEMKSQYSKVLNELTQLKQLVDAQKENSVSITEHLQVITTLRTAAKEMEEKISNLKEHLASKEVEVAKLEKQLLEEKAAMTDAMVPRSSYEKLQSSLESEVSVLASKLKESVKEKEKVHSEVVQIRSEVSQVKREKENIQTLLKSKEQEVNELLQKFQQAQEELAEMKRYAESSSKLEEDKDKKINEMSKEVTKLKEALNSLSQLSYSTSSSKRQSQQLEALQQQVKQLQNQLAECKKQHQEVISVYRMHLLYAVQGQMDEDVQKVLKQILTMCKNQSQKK
UniProt P46060: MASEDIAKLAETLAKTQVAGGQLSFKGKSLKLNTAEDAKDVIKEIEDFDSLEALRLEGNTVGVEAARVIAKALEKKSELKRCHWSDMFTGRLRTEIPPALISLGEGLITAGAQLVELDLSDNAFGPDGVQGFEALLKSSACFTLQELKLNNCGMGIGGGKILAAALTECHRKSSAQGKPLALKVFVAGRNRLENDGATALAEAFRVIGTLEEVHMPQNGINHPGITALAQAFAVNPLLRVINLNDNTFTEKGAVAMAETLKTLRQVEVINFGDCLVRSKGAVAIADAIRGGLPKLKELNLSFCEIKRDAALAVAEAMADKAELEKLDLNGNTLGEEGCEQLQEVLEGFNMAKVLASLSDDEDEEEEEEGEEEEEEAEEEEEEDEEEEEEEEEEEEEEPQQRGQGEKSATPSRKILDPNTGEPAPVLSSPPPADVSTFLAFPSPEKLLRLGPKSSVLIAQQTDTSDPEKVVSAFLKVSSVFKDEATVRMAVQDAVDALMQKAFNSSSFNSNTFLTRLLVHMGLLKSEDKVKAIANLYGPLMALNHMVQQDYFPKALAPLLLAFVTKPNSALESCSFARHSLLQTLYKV
UniProt Q6IQ22: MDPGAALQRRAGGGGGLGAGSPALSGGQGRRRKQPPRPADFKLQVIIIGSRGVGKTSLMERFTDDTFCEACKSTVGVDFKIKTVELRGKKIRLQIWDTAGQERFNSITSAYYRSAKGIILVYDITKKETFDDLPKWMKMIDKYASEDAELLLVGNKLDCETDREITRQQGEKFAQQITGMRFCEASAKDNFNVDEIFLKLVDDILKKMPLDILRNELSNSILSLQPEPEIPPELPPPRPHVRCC
UniProt Q9BXR0: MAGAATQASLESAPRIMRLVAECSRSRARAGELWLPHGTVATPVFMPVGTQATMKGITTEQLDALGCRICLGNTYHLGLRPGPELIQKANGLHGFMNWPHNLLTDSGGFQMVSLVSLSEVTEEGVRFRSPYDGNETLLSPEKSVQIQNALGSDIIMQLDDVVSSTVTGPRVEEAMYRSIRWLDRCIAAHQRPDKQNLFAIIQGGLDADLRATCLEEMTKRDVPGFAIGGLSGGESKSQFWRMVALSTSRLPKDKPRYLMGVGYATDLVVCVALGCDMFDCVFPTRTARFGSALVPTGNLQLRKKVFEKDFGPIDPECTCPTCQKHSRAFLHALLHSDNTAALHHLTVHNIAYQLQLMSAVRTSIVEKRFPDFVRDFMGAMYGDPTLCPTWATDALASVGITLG
UniProt Q9NRW1: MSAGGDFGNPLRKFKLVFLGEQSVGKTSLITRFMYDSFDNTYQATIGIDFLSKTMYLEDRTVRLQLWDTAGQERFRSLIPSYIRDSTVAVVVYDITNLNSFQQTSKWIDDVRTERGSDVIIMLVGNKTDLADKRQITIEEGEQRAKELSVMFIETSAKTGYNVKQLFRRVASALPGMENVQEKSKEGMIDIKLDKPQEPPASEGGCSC
UniProt Q92930: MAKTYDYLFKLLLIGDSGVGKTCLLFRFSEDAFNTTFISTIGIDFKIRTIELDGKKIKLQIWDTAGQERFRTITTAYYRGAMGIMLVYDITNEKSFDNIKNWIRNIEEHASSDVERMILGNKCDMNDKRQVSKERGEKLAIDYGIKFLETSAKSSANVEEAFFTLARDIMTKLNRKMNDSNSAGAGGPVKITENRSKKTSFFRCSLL

Columns and labels:
Test in all cases: log2 fold change, soluble protein after heating vs DMSO (PISA); higher = thermal stabilisation; K562 lysate, 10 uM; active = over 0.2 and 3.5 SD of the protein, either way, in both replicates (recomputed)
[1] = compound: NCC(=O)Nc1ccc(-n2nc(C(F)(F)F)cc2-c2ccc3c(ccc4ccccc43)c2)cc1
Method in brief: (§1)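 Log-two fold change in thermal stability relative to solvent controls is reported from duplicates. For each sample, crude K562 extract from dounce-homogenised pellets in PBS pH 7.4 with 1 mM MgCl2, at 1 mg/mL protein, was treated with 10 μM compound for 30 min. Aliquots heated for 3 min across 48°C-58°C were pooled, brought to 0.5% NP-40 at 4°C and cleared at 21,000xg for 90 min. The supernatant was quantified by TMTpro 16plex LC-MS/MS with channel sums equalised.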

vorinostat = compound: O=C(CCCCCCC(=O)Nc1ccccc1)NO [vorinostat]
Method in brief: as §1

silmitasertib = compound: O=C(O)c1ccc2c(c1)nc(Nc1cccc(Cl)c1)c1ccncc12 [silmitasertib]
Method in brief: as §1

[2] = compound: O=C1NC(=O)C(c2cnc3ccccn23)=C1c1cn2c3c(cc(F)cc13)CN(C(=O)N1CCCCC1)CC2
Method in brief: as §1

entospletinib = compound: c1cn2cc(-c3ccc4cn[nH]c4c3)nc(Nc3ccc(N4CCOCC4)cc3)c2n1 [entospletinib]
Method in brief: as §1

Measured: log2 fold change

RAB3IL1 (UniProt E9PK89)
active: vorinostat -0.614
inactive: [1] 0.016 | silmitasertib 0.011 | [2] 0.079 | entospletinib -0.158

RAD21 (UniProt O60216)
inactive: [1] -0.06 | vorinostat 0.038 | silmitasertib -0.002 | [2] -0.019 | entospletinib -0.003

RAD50 isoform 2 (UniProt Q92878)
active: vorinostat -0.458
inactive: [1] -0.005 | silmitasertib 0.024 | [2] -0.009 | entospletinib -0.003

PYCR3 (UniProt Q53H96)
inactive: [1] 0.036 | vorinostat 0.054 | silmitasertib -0.019 | [2] 0.053 | entospletinib -0.001

RALA (UniProt P11233)
inactive: [1] 0.031 | vorinostat 0.129 | silmitasertib -0.062 | [2] 0 | entospletinib -0.006

RAB5B (UniProt P61020)
inactive: [1] -0.029 | vorinostat 0.086 | silmitasertib -0.074 | [2] -0.023 | entospletinib -0.001

RAB22A (UniProt Q9UL26)
inactive: [1] 0.024 | vorinostat 0.087 | silmitasertib -0.073 | [2] -0.021 | entospletinib 0.033

QDPR (UniProt P09417)
inactive: [1] 0.009 | vorinostat -0.043 | silmitasertib 0.025 | [2] -0.02 | entospletinib 0.012

RAB9A (UniProt P51151)
inactive: [1] -0.001 | vorinostat 0.146 | silmitasertib -0.006 | [2] -0.02 | entospletinib -0.008

RACK1 (UniProt D6RHH4)
inactive: [1] -0.04

RAB1A (UniProt P62820)
inactive: [1] -0.016 | vorinostat 0.135 | silmitasertib 0.021 | [2] -0.027 | entospletinib -0.034

RAB11FIP1 (UniProt Q6WKZ4)
inactive: [1] 0.014 | vorinostat 0.031 | silmitasertib 0.033 | [2] 0.006 | entospletinib -0.004

RAPGEF4 (UniProt Q8WZA2)
inactive: [1] 0.219 | vorinostat 0.143 | silmitasertib -0.09 | [2] 0.353 | entospletinib 0.014

RAB31 (UniProt Q13636)
inactive: [1] -0.046 | vorinostat 0.013 | silmitasertib 0.015 | [2] -0.005 | entospletinib -0.127

RABEP2 (UniProt Q9H5N1)
inactive: [1] 0.062 | vorinostat -0.072 | silmitasertib -0.008 | [2] 0.031 | entospletinib -0.028

RAE1 (UniProt P78406)
inactive: [1] 0.007 | vorinostat -0.126 | silmitasertib -0.022 | [2] -0.062 | entospletinib -0.024

RAD51B (UniProt O15315)
inactive: [1] -0.101 | vorinostat -0.256 | silmitasertib -0.019 | [2] 0.091 | entospletinib -0.073

RAB2A (UniProt P61019)
inactive: [1] -0.095 | vorinostat 0.141 | silmitasertib -0.001 | [2] -0.011 | entospletinib 0.006

RAB11A (UniProt P62491)
inactive: [1] 0.099 | vorinostat 0.12 | silmitasertib 0.046 | [2] 0.034 | entospletinib 0.004

RAC3 (UniProt P60763)
inactive: [1] -0.027 | vorinostat 0.015 | silmitasertib -0.011 | [2] 0.014 | entospletinib 0.057

RAB20 (UniProt Q9NX57)
inactive: [1] 0.024 | vorinostat 0.136 | silmitasertib -0.022 | [2] -0.018 | entospletinib -0.012

R3HDM1 isoform 3 (UniProt Q15032)
inactive: [1] 0.085 | vorinostat -0.051 | silmitasertib 0.029 | [2] -0.008 | entospletinib -0.036

PYCR1 (UniProt J3QKT4)
inactive: [1] 0.147 | vorinostat 0.057 | silmitasertib -0.138 | [2] -0.038 | entospletinib 0.083

PYGL (UniProt P06737)
inactive: [1] -0.013 | vorinostat 0.05 | silmitasertib 0.184 | [2] 0 | entospletinib -0.022

RABGAP1L isoform 5 (UniProt Q5R372)
inactive: [1] -0.059 | vorinostat 0.017 | silmitasertib -0.013 | [2] -0.039 | entospletinib -0.043

QRICH1 (UniProt Q2TAL8)
inactive: [1] -0.016 | vorinostat -0.21 | silmitasertib 0.029 | [2] -0.011 | entospletinib 0.003

RAP1A (UniProt P62834)
inactive: [1] 0.026 | vorinostat 0.147 | silmitasertib -0.009 | [2] 0.019 | entospletinib -0.012

RAI14 isoform 2 (UniProt Q9P0K7)
active: vorinostat -0.254
inactive: [1] 0.005 | silmitasertib 0.022 | [2] 0.015 | entospletinib -0.003

QKI (UniProt Q96PU8)
inactive: [1] -0.008 | vorinostat -0.147 | silmitasertib 0.021 | [2] 0.045 | entospletinib 0.007

RAF1 isoform 2 (UniProt P04049)
active: vorinostat -0.304
inactive: [1] 0.126 | silmitasertib 0.024 | [2] 0.068 | entospletinib -0.015

RAD23A (UniProt P54725)
inactive: [1] 0.008 | vorinostat 0.062 | silmitasertib -0.009 | [2] -0.017 | entospletinib -0.03

PYGB (UniProt P11216)
inactive: [1] -0.024 | vorinostat -0.004 | silmitasertib 0.115 | [2] -0.006 | entospletinib -0.049

R3HCC1 (UniProt Q9Y3T6)
active: vorinostat -0.259
inactive: [1] 0.045 | silmitasertib -0.036 | [2] -0.002 | entospletinib 0.067

RANGAP1 (UniProt P46060)
inactive: [1] 0.021 | vorinostat -0.112 | silmitasertib 0.015 | [2] 0.003 | entospletinib 0.015

RAB12 (UniProt Q6IQ22)
inactive: [1] 0.021 | vorinostat 0.021 | silmitasertib 0.003 | [2] -0.053 | entospletinib 0

RABEP1 (UniProt Q15276)
inactive: [1] 0.025 | vorinostat 0.076 | silmitasertib -0.004 | [2] -0.012 | entospletinib -0.012

RABL3 (UniProt Q5HYI8)
inactive: [1] 0.031 | vorinostat -0.126 | silmitasertib 0.445 | [2] -0.039 | entospletinib 0

10 successive records already listed, for reference:
RAI14 isoform 2 (UniProt Q9P0K7)
active: vorinostat -0.254
inactive: [1] 0.005 | silmitasertib 0.022 | [2] 0.015 | entospletinib -0.003

QKI (UniProt Q96PU8)
inactive: [1] -0.008 | vorinostat -0.147 | silmitasertib 0.021 | [2] 0.045 | entospletinib 0.007

RAF1 isoform 2 (UniProt P04049)
active: vorinostat -0.304
inactive: [1] 0.126 | silmitasertib 0.024 | [2] 0.068 | entospletinib -0.015

RAD23A (UniProt P54725)
inactive: [1] 0.008 | vorinostat 0.062 | silmitasertib -0.009 | [2] -0.017 | entospletinib -0.03

PYGB (UniProt P11216)
inactive: [1] -0.024 | vorinostat -0.004 | silmitasertib 0.115 | [2] -0.006 | entospletinib -0.049

R3HCC1 (UniProt Q9Y3T6)
active: vorinostat -0.259
inactive: [1] 0.045 | silmitasertib -0.036 | [2] -0.002 | entospletinib 0.067

RANGAP1 (UniProt P46060)
inactive: [1] 0.021 | vorinostat -0.112 | silmitasertib 0.015 | [2] 0.003 | entospletinib 0.015

RAB12 (UniProt Q6IQ22)
inactive: [1] 0.021 | vorinostat 0.021 | silmitasertib 0.003 | [2] -0.053 | entospletinib 0

RABEP1 (UniProt Q15276)
inactive: [1] 0.025 | vorinostat 0.076 | silmitasertib -0.004 | [2] -0.012 | entospletinib -0.012

RABL3 (UniProt Q5HYI8)
inactive: [1] 0.031 | vorinostat -0.126 | silmitasertib 0.445 | [2] -0.039 | entospletinib 0

The results go on.

RAB10 (UniProt P61026)
inactive: [1] -0.026 | vorinostat 0.113 | silmitasertib -0.009 | [2] -0.006 | entospletinib -0.013

RAB5A (UniProt P20339)
inactive: [1] 0.054 | vorinostat 0.041 | silmitasertib -0.022 | [2] 0.038 | entospletinib -0.013

QTRT1 (UniProt Q9BXR0)
inactive: [1] 0.026 | vorinostat 0.094 | silmitasertib -0.004 | [2] 0.004 | entospletinib -0.013

RACGAP1 (UniProt Q9H0H5)
inactive: [1] -0.018 | vorinostat -0.229 | silmitasertib -0.031 | [2] 0 | entospletinib -0.015

RAP2A (UniProt P10114)
inactive: [1] -0.035 | vorinostat 0.139 | silmitasertib -0.005 | [2] 0.045 | entospletinib -0.067

RABGEF1 isoform 3 (UniProt Q9UJ41)
inactive: [1] -0.009 | vorinostat 0.03 | silmitasertib -0.025 | [2] -0.013 | entospletinib -0.002

RAB6B (UniProt Q9NRW1)
inactive: [1] -0.038 | vorinostat 0.119 | silmitasertib -0.012 | [2] 0.01 | entospletinib -0.023

RANBP6 (UniProt O60518)
inactive: [1] 0.013 | silmitasertib 0.054 | [2] 0.041 | entospletinib 0.011
active: vorinostat -0.345

RAB8B (UniProt Q92930)
inactive: [1] -0.022 | vorinostat 0.135 | silmitasertib -0.025 | [2] 0 | entospletinib -0.021

RABIF (UniProt P47224)
inactive: [1] -0.07 | vorinostat 0.165 | silmitasertib 0.032 | [2] -0.029 | entospletinib -0.015

RABGAP1L isoform 3 (UniProt Q5R372)
inactive: [1] -0.005 | vorinostat -0.191 | silmitasertib 0.032 | [2] -0.028 | entospletinib 0.013

RAC1 isoform 2 (UniProt P63000)
inactive: [1] 0.015 | vorinostat 0.011 | silmitasertib 0.005 | [2] -0.051 | entospletinib -0.003

QPCTL (UniProt Q9NXS2)
inactive: [1] -0.117 | vorinostat 0.111 | silmitasertib -0.007 | [2] 0.051 | entospletinib -0.024

PYCR2 (UniProt Q96C36)
inactive: [1] 0.002 | vorinostat 0.1 | silmitasertib -0.008 | [2] 0.015 | entospletinib 0

RANBP3 (UniProt Q9H6Z4)
inactive: [1] 0.027 | vorinostat 0.087 | silmitasertib -0.021 | [2] 0.009 | entospletinib 0.031

RAD51 (UniProt Q06609)
inactive: [1] 0.21 | vorinostat -0.151 | silmitasertib 0.059 | [2] 0.011 | entospletinib -0.028
